Values from PubChem BioAssay AID1259425 (University of Nebraska Medical Center, 2018)
This is one part, drawn at random, of about 14,000 reagents. The numbers tell different reagents against one gene apart. Some reagents were tested in more than one well and are listed for each. Reagent sequences are not shown. Not given: the time to read-out.

Test: 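Find knockdowns that reproduce the gene expression pattern seen when KSR1 is lost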 (primary screen)
Cell system: HCT116 human colon cancer cells
Knock-down reagent: siRNA pool against human genes, 50 nM siRNA
Read-out: 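After 50 nM siRNA pool, branched-DNA assay measures six marker transcripts per well, minus blank, normalised to the geometric mean of two housekeeping transcripts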
Reading the numbers: BNIP3L mRNA: higher = more BNIP3L transcript after knockdown; NDRG1 mRNA: higher = more NDRG1 transcript after knockdown; BNIP3 mRNA: higher = more BNIP3 transcript after knockdown; ALDOC mRNA: higher = more ALDOC transcript after knockdown; ACSL5 mRNA: higher = more ACSL5 transcript after knockdown

BNIP3L mRNA, set 1	NDRG1 mRNA, set 1	BNIP3 mRNA, set 1	ALDOC mRNA, set 1	ACSL5 mRNA, set 1	gene knocked down	reagent
0.101	0.18	0.307	0.0315	0.202	EFNA1 (ephrin A1)	1
0.286	0.362	0.735	0.0508	0.168	MYL6 (myosin light chain 6)	1
0.094	0.0692	0.271	0.0116	0.161	HMMR (hyaluronan mediated motility receptor)	1
0.0984	0.122	0.285	0.00839	0.0921	DEFA3 (defensin alpha 3)	1
0.0558	0.168	0.275	0.0323	0.0769	ITGA8 (integrin subunit alpha 8)	1
0.105	0.0838	0.281	0.0439	0.294	SCAF4 (SR-related CTD associated factor 4)	1
0.0816	0.214	0.193	0.0426	0.0671	ZNF154 (zinc finger protein 154)	1
0.0653	0.191	0.193	0.00591	0.0854	TNFRSF4 (TNF receptor superfamily member 4)	1
0.107	0.137	0.268	0.00771	0.204	RERE (arginine-glutamic acid dipeptide repeats)	1
0.16	0.619	0.349	0.0459	0.317	TINF2 (TERF1 interacting nuclear factor 2)	1
0.105	0.147	0.277	0.0254	0.293	FBXO32 (F-box protein 32)	1
0.121	0.251	0.341	0.0451	0.27	CD1C (CD1c molecule)	1
0.15	0.142	0.278	0.0709	0.0711	ALG13 (ALG13 UDP-N-acetylglucosaminyltransferase subunit)	1
0.14	0.206	0.217	0.0492	0.145	ALG13 (ALG13 UDP-N-acetylglucosaminyltransferase subunit)	2
0.147	0.0802	0.332	0.0292	0.128	DOCK9 (dedicator of cytokinesis 9)	1
0.197	0.157	0.277	0.0384	0.602	FSD1L (fibronectin type III and SPRY domain containing 1 like)	1
0.13	0.092	0.569	0.0324	0.115	FAM162A (family with sequence similarity 162 member A)	1
0.0907	0.0816	0.172	0.0115	0.163	FOXP2 (forkhead box P2)	1
0.139	0.304	0.405	0.0373	0.307	FHL5 (four and a half LIM domains 5)	1
0.247	0.854	0.418	0.0847	0.269	CELSR3 (cadherin EGF LAG seven-pass G-type receptor 3)	1
0.136	0.0782	0.186	0.032	0.13	RCL1 (RNA terminal phosphate cyclase like 1)	1
0.176	0.283	0.247	0.0652	0.172	CELSR1 (cadherin EGF LAG seven-pass G-type receptor 1)	1
0.198	0.699	0.363	0.0117	0.547	AVPR1B (arginine vasopressin receptor 1B)	1
0.154	0.552	0.281	0.0364	0.374	AVPR1B (arginine vasopressin receptor 1B)	1
0.114	0.152	0.268	0.0202	0.173	JMJD6	1
0.082	0.0625	0.255	0.0239	0.111	FBXO8 (F-box protein 8)	1
0.147	0.371	0.79	0.131	0.251	ELP5 (elongator acetyltransferase complex subunit 5)	1
0.159	0.203	0.324	0.054	0.214	MYO1F (myosin IF)	1
0.133	0.033	0.457	0.00492	0.27	CDKN3 (cyclin dependent kinase inhibitor 3)	1
0.164	0.27	0.292	0.07	0.0543	CACNA1E (calcium voltage-gated channel subunit alpha1 E)	1
0.192	0.159	0.374	0.00653	0.13	DUSP5 (dual specificity phosphatase 5)	1
0.0835	0.31	0.387	0.0232	0.231	TFCP2L1 (transcription factor CP2 like 1)	1
0.0907	0.357	0.178	0.0623	0.23	DBI (diazepam binding inhibitor, acyl-CoA binding protein)	1
0.103	1.05	0.444	0.0216	0.299	TPRKB (TP53RK binding protein)	1
0.113	0.216	0.206	0.0141	0.176	DARS1 (aspartyl-tRNA synthetase 1)	1
0.052	0.0767	0.306	0.0117	0.105	MTBP (MDM2 binding protein)	1
0.107	0.215	0.242	0.0267	0.127	IGF1 (insulin like growth factor 1)	1
0.05	0.486	0.215	0.0257	0.171	GABRB3 (gamma-aminobutyric acid type A receptor subunit beta3)	1
0.0953	0.0922	0.381	0.0513	0.124	APOL2 (apolipoprotein L2)	1
0.274	1.26	0.681	0.0879	0.25	P2RY6 (pyrimidinergic receptor P2Y6)	1
0.115	0.281	0.363	0.0881	0.313	SHCBP1L (SHC binding and spindle associated 1 like)	1
0.103	0.121	0.218	0.0308	0.221	CYP2J2 (cytochrome P450 family 2 subfamily J member 2)	1
0.169	0.191	0.305	0.0146	0.215	LILRA3 (leukocyte immunoglobulin like receptor A3)	1
0.158	0.137	0.352	0.0412	0.166	OR2H2 (olfactory receptor family 2 subfamily H member 2)	1
0.0992	0.295	0.249	0.0213	0.155	RMDN3 (regulator of microtubule dynamics 3)	1
0.163	0.249	0.363	0.0352	0.171	MAGEL2 (MAGE family member L2)	1
0.172	0.209	0.335	0.0444	0.202	PRR14 (proline rich 14)	1
0.0711	0.275	0.223	0.0139	0.103	WDR41 (WD repeat domain 41)	1
0.0848	0.364	0.472	0.0283	0.12	KCNJ12 (potassium inwardly rectifying channel subfamily J member 12)	1
0.144	0.253	0.317	0.0206	0.379	TMEM69 (transmembrane protein 69)	1
0.0961	0.0878	0.266	0.00472	0.17	CTSD (cathepsin D)	1
0.0504	0.098	0.21	0.0211	0.14	CD302 (CD302 molecule)	1
0.128	0.258	0.416	0.0462	0.151	LRRC8E (leucine rich repeat containing 8 VRAC subunit E)	1
0.099	0.0541	0.187	0.0205	0.159	ERO1B (endoplasmic reticulum oxidoreductase 1 beta)	1
0.105	0.165	0.208	0.0146	0.13	FNBP1 (formin binding protein 1)	1
0.124	0.417	0.406	0.0334	0.202	CASP4 (caspase 4)	1
0.175	0.186	0.584	0.039	0.197	SHH (sonic hedgehog signaling molecule)	1
0.12	0.501	0.24	0.0273	0.0957	SRL (sarcalumenin)	1
0.17	0.11	0.36	0.0115	0.174	ZNF687 (zinc finger protein 687)	1
0.0731	0.283	0.308	0.0147	0.13	CDC42 (cell division cycle 42)	1
0.112	0.157	0.311	0.0165	0.0732	MT-ND2 (mitochondrially encoded NADH dehydrogenase 2)	1
0.0662	0.0964	0.293	0.0082	0.0986	EIF4A1 (eukaryotic translation initiation factor 4A1)	1
0.0574	0.09	0.237	0.0147	0.0943	MOCOS (molybdenum cofactor sulfurase)	1

In a second layout: results already given.
{"gene knocked down": "SRL (sarcalumenin)", "reagent": 1, "BNIP3L mRNA, set 1": 0.12, "NDRG1 mRNA, set 1": 0.501, "BNIP3 mRNA, set 1": 0.24, "ALDOC mRNA, set 1": 0.0273, "ACSL5 mRNA, set 1": 0.0957}
{"gene knocked down": "ZNF687 (zinc finger protein 687)", "reagent": 1, "BNIP3L mRNA, set 1": 0.17, "NDRG1 mRNA, set 1": 0.11, "BNIP3 mRNA, set 1": 0.36, "ALDOC mRNA, set 1": 0.0115, "ACSL5 mRNA, set 1": 0.174}
{"gene knocked down": "CDC42 (cell division cycle 42)", "reagent": 1, "BNIP3L mRNA, set 1": 0.0731, "NDRG1 mRNA, set 1": 0.283, "BNIP3 mRNA, set 1": 0.308, "ALDOC mRNA, set 1": 0.0147, "ACSL5 mRNA, set 1": 0.13}
{"gene knocked down": "MT-ND2 (mitochondrially encoded NADH dehydrogenase 2)", "reagent": 1, "BNIP3L mRNA, set 1": 0.112, "NDRG1 mRNA, set 1": 0.157, "BNIP3 mRNA, set 1": 0.311, "ALDOC mRNA, set 1": 0.0165, "ACSL5 mRNA, set 1": 0.0732}
{"gene knocked down": "EIF4A1 (eukaryotic translation initiation factor 4A1)", "reagent": 1, "BNIP3L mRNA, set 1": 0.0662, "NDRG1 mRNA, set 1": 0.0964, "BNIP3 mRNA, set 1": 0.293, "ALDOC mRNA, set 1": 0.0082, "ACSL5 mRNA, set 1": 0.0986}
{"gene knocked down": "MOCOS (molybdenum cofactor sulfurase)", "reagent": 1, "BNIP3L mRNA, set 1": 0.0574, "NDRG1 mRNA, set 1": 0.09, "BNIP3 mRNA, set 1": 0.237, "ALDOC mRNA, set 1": 0.0147, "ACSL5 mRNA, set 1": 0.0943}
